Data source: PubChem BioAssay AID1224826 (NIAID, 2016)
Screen: 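Regulators of Tlr4 signalling leading to Tnf-alpha expression in macrophages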 (primary screen). System: RAW264.7 G9 macrophages from mouse bearing reporters for p65 (GFP) and the Tnf promoter (mCherry). Reagent: siRNA pool against mouse genes, 100 nM. Timing: 16 h of LPS stimulation, after 2 days of siRNA transfection. Conditions: bacterial lipopolysaccharide (Salmonella minnesota R595), 10 ng/ml. Detection: 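Imaged Tnf reporter mCherry in nuclei, minus background, normalised per plate to the median and expressed as robust z-scores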. Direction: Tnf reporter robust z-score: higher = stronger Tnf promoter reporter signal after LPS. Call rule: 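Called active when robust z-score is at most -1.3, matching the median of the Tlr4 knock-down control, or over 3; control wells and wells with under 50 cells never active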. Calls: active = Tnf reporter clearly lowered or raised; inactive = no clear change in Tnf reporter.
Shown is a random part of about 17,000 reagents. About 1,110 of them (6.6%) were called active. 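Active means lowered or raised reporter signal; replicate intensities are raw and not normalised per plate.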 Further read-outs or replicates are left out here.

4930512M02Rik (GeneID 102631730): Tnf reporter robust z-score = -0.08; fewer than 50 cells in well = enough cells in well; Outcome = inactive
Gcat (GeneID 26912): Tnf reporter robust z-score = 1.3; fewer than 50 cells in well = enough cells in well; Outcome = inactive
Iscu (GeneID 66383): fewer than 50 cells in well = fewer than 50 cells per well; well left out of calls; Outcome = inactive
Cfap20 (GeneID 14894): Tnf reporter robust z-score = -0.06; fewer than 50 cells in well = enough cells in well; Outcome = inactive
Krtap6-2 (GeneID 16701): Tnf reporter robust z-score = -0.22; fewer than 50 cells in well = enough cells in well; Outcome = inactive
Tgfb3 (GeneID 21809): Tnf reporter robust z-score = 0.47; fewer than 50 cells in well = enough cells in well; Outcome = inactive
Gjc3 (GeneID 118446): Tnf reporter robust z-score = 0.06; fewer than 50 cells in well = enough cells in well; Outcome = inactive
Btnl9 (GeneID 237754): Tnf reporter robust z-score = 3.01; fewer than 50 cells in well = enough cells in well; Outcome = active
Eif4g2 (GeneID 13690): Tnf reporter robust z-score = -0.42; fewer than 50 cells in well = enough cells in well; Outcome = inactive
Fga (GeneID 14161): Tnf reporter robust z-score = -1.22; fewer than 50 cells in well = enough cells in well; Outcome = inactive
Rwdd4a (GeneID 192174): Tnf reporter robust z-score = -0.22; fewer than 50 cells in well = enough cells in well; Outcome = inactive
Xkr6 (GeneID 219149): Tnf reporter robust z-score = 0.44; fewer than 50 cells in well = enough cells in well; Outcome = inactive
Klrb1a (GeneID 17057): Tnf reporter robust z-score = -0.41; fewer than 50 cells in well = enough cells in well; Outcome = inactive

Entries above called active:
Btnl9 (GeneID 237754): Tnf reporter robust z-score = 3.01; fewer than 50 cells in well = enough cells in well; Outcome = active

Continued.
Or5p52 (GeneID 258770): Tnf reporter robust z-score = -1.96; fewer than 50 cells in well = enough cells in well; Outcome = active
Hsd17b10 (GeneID 15108): Tnf reporter robust z-score = 2.2; fewer than 50 cells in well = enough cells in well; Outcome = inactive
Irx5 (GeneID 54352): Tnf reporter robust z-score = 0.32; fewer than 50 cells in well = enough cells in well; Outcome = inactive
Irs3 (GeneID 16369): Tnf reporter robust z-score = 1.04; fewer than 50 cells in well = enough cells in well; Outcome = inactive
Naa50 (GeneID 72117): Tnf reporter robust z-score = 4.88; fewer than 50 cells in well = enough cells in well; Outcome = active
Knstrn (GeneID 51944): Tnf reporter robust z-score = 1.35; fewer than 50 cells in well = enough cells in well; Outcome = inactive
Kif4 (GeneID 16571): Tnf reporter robust z-score = -0.5; fewer than 50 cells in well = enough cells in well; Outcome = inactive
Il11ra1 (GeneID 16157): fewer than 50 cells in well = fewer than 50 cells per well; well left out of calls; Outcome = inactive
